B1: NUB1 (NEDD8 ultimate buster 1), wild type, full length [human] / ^FAMFAT10 (GG–FAT10 N-terminally labeled with fluorescein amidite by sortase) [modified: 5-FAM on the N terminus (5-FAM conjugated to the N terminus of … (parent)
chain 1: GPGSMAQKKYLQAKLTQFLREDRIQLWKPPYTDENKKVGLALKDLAKQYSDRLECCENEVEKVIEEIRCKAIERGTGNDNYRTTGIATIEVFLPPRLKKDRKNLLETRLHITGRELRSKIAETFGLQENYIKIVINKKQLQLGKTLEEQGVAHNVKAMVLELKQSEEDARKNFQLEEEEQNEAKLKEKQIQRTKRGLEILAKRAAETVVDPEMTPYLDIANQTGRSIRIPPSERKALMLAMGYHEKGRAFLKRKEYGIALPCLLDADKYFCECCRELLDTVDNYAVLQLDIVWCYFRLEQLECLDDAEKKLNLAQKCFKNCYGENHQRLVHIKGNCGKEKVLFLRLYLLQGIRNYHSGNDVEAYEYLNKARQLFKELYIDPSKVDNLLQLGFTAQEARLGLRACDGNVDHAATHITNRREELAQIRKEEKEKKRRRLENIRFLKGMGYSTHAAQQILLSNPQMWWLNDSNPETDNRQESPSQENIDRLVYMGFDALVAEAALRVFRGNVQLAAQTLAHNGGSLPPELPLSPEDSLSPPATSPSDSAGTSSASTDEDMETEAVNEILEDIPEHEEDYLDSTLEDEEIIIAEYLSYVENRKSATKKN
chain 2: GGMAPNASCLCVHVRSEEWDLMTFDANPYDSVKKIKEHVRSKTKVPVQDQVLLLGSKILKPRRSLSSYGIDKEKTIHLTLKVVKPSDEELPLFLVESGDEAKRHLLQVRRSSSVAQVKAMIETKTGIIPETQIVTCNGKRLEDGKMMADYGIRKGNLLFLACYCIGG

Variants of B1 are the subject of this experiment. As to the kind of experiment: fluorescence polarisation. The conditions noted are these: with ^FAMFAT10 (GG–FAT10 N-terminally labeled with fluorescein amidite by sortase) [modified: 5-FAM on the N terminus (5-FAM conjugated to the N terminus of the pept); FAMFAT10 100 nM; NUB1 5 μM; preincubation for 30 min; read off a plot. Background: In fluorescence polarisation assays a small probe gives low polarisation when free and higher when bound to something large.
For the variant chain 1 D218P A220P, the response worked out at 146 mP.
Next, chain 1 C321A R328A: 167 mP; chain 1 R418A L422A: 191 mP; chain 1 N283A: 148 mP.
Next, chain 1 Y576A: 187 mP; chain 1 D282A: 166 mP.
Under chain 1 L566S I569S stands 155 mP.

For the origin of these results see article PMC12285911.
